Some of the results follow. The main result of the screen is listed elsewhere. These columns were measured beside it and carry no call. The list favours compounds with an active or inconclusive main result. Words in brackets tell the shape of the fitted curve; partial curves, single points and poor fits give uncertain potencies.
Test: qHTS Assay for Lipid Storage Modulators in Drosophila S3 Cells;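 for cell number change: cells counted by Cell Tracker Red CMTPX staining in the red channel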
Details: BODIPY lipid droplet fluorescence, 18-24 h; for cell number change: measured here: cell count max response, cells fed with added oleic acid
Procedure, shortened: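 Drosophila S3 cells loaded with oleic acid (400 uM, as added) and compounds at several concentrations; lipid droplets imaged by 488-nm laser-scanning cytometry, 500–530 nm intensity and object ratio to cell channel. Percent activity normalized to 20 uM Triacsin C.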

[1] = measured here: lipid fluorescence (Fed channel) AC50, cells fed with added oleic acid
[2] = measured here: cell number channel AC50, cells fed with added oleic acid

Structure (SMILES)	cell number change [%]	AC50 [1]	AC50 [2]
COc1ccc(/C=N/NC(=O)CN2CCCCCCC2)c(C)c1C	-5.1	0.651 µM [falling, single point]	–
Cc1cc(C)c[n+](C(C)C(=O)c2ccc(Cl)cc2)c1 (stereo not given)	-11.6	–	–
Cc1cc(=O)c2ccc(Cl)cc2[nH]1	9.66	0.206 µM [rising, full curve, poor fit]	–
Cc1ccc(Nc2nc3ccccc3c(=O)s2)cc1C	-2.96	0.291 µM [falling, full curve, poor fit]	–
CCOc1cccc(C(=O)NC(=S)Nc2cccnc2)c1	96.6	18.4 µM [rising, partial curve]	3.66 µM [rising, full curve]
O=C(Nc1ccc2ccccc2c1)C(c1ccccc1)C1CCCC1 (stereo not given)	-18	0.0291 µM [falling, full curve, poor fit]	–
Cc1cccc(C(=O)OC2CCOC2=O)c1O (stereo not given)	–	0.82 µM [falling, full curve]	–
Cc1cc(C)n(CC(=O)NCCC2=CCCCC2)n1	33.3	–	32.6 µM [rising, single point]
O=C(COC(=O)CNC(=O)C1CCCCC1)Nc1ccccc1Cl	4.46	0.13 µM [falling, single point]	–
CCOC(=O)/C(C#N)=C1/SC(C)C(=O)N1c1ccc(Br)cc1 (stereo not given)	-19.6	25.9 µM [falling, partial curve, poor fit]	–
O=C1CCCC/C1=C/Nc1ccc2c(c1)OCO2	14.8	2.59 µM [rising, full curve]	–
O=C(CCc1nc(-c2ccccc2)no1)Nc1cc(C(F)(F)F)ccc1Cl	-23.6	29.1 µM [falling, single point]	–
Cc1cccc(NC(=O)c2cccc(S(=O)(=O)N3CCCCC3)c2)c1	19	–	–
Cn1c(=O)n(C)c2cc(S(=O)(=O)NCc3ccccc3)ccc21	-22.2	–	–
COc1ccc(-c2ccc(-c3noc(-c4cccc(OC)c4)n3)c(OC)n2)cc1	1.75	–	–
COc1ccc(OC)c(NC(=O)COc2ccc(Br)cc2)c1	24.1	29.1 µM [rising, single point]	–
CC1CN(C(=O)c2ccccc2C(=O)c2ncc[nH]2)CC(C)O1 (stereo not given)	-5.22	5.17 µM [falling, full curve]	1.03 µM [falling, full curve]
COc1ccc(CCNC(=O)COC(=O)c2cc(=O)c3ccccc3o2)cc1	20.3	0.326 µM [rising, full curve, poor fit]	–
CCSc1nc2c(c(=O)[nH]1)C(c1cccnc1)C(C(=O)OC)=C(C)N2 (stereo not given)	14.6	9.2 µM [rising, partial curve, poor fit]	–
CC(=O)N1CCN(C(=O)COc2ccc(Br)cc2)CC1	-162	–	29.1 µM [falling, single point]
COc1ccc(/C=N/NC(=O)c2ccc3nc[nH]c3c2)cc1OC	17.6	0.259 µM [rising, full curve, poor fit]	–

Structure (SMILES)	cell number change [%]	AC50 [1]	AC50 [2]
CCNS(=O)(=O)c1ccc(NC(=O)Cn2cc([N+](=O)[O-])cn2)cc1	-30.3	–	3.26 µM [falling, single point]
COc1ccc2occ(C(=O)c3ccc(N)cc3)c2c1	3.55	4.61 µM [rising, full curve, poor fit]	–
O=C1CC(=O)Nc2cc(S(=O)(=O)N3CCN(c4cccc(C(F)(F)F)c4)CC3)ccc2N1	-11.5	0.00517 µM [falling, full curve, poor fit]	–
CCCCn1c(N)c(N(CC)C(=O)c2cccc(F)c2)c(=O)[nH]c1=O	-0.84	0.366 µM [rising, full curve]	–
COC(=O)C1(C)NC(c2ccccc2C)C2C(=O)N(c3ccccc3)C(=O)C21 (stereo not given)	12.3	6.51 µM [falling, single point]	–
O=C(COC(=O)c1ccccn1)Nc1ccccc1OC(F)F	14.9	23.1 µM [rising, single point]	–
CC(C)Oc1ccc(/C=N/NC(=O)c2nnn(-c3nonc3N)c2CN(C)c2ccccc2)cc1	41	29.1 µM [falling, single point]	7.31 µM [rising, single point]
CCSc1ccc2nnc(-c3cccs3)n2n1	-7.52	–	0.00411 µM [falling, full curve, poor fit]
CC(NC(=O)c1ccc(F)cc1F)C1CC2CCC1C2 (stereo not given)	-7.98	4.11 µM [falling, full curve, poor fit]	–
COc1cc(OC)nc(Oc2cccc(C(F)(F)F)c2)n1	7.8	14.6 µM [rising, single point]	–
O=C(Nc1ccccc1N1CCCCC1)c1cccs1	–	6.51 µM [rising, partial curve]	4.11 µM [rising, partial curve]
CCc1noc(C)c1C(=O)N1CCN(S(=O)(=O)c2ccc(Cl)cc2)CC1	4.23	6.51 µM [rising, single point]	–
CCn1c(CC(=O)Nc2ccccc2F)nnc1SCC(=O)NC1CCCC1	-7.89	–	–
Cn1c(N)c(C(=O)c2ccccc2)c(=O)n(C)c1=O	21.7	6.51 µM [falling, single point]	–
COc1ccc(NC2CCCN(C(=O)CN3CCOC3=O)C2)cc1 (stereo not given)	-15.1	0.58 µM [rising, single point]	–
C=C1C[C@H](O)[C@@H]2[C@H](OC(=O)[C@H]2C)[C@H]2[C@H](C)[C@@H](O)C[C@@H]12	10.2	1.46 µM [falling, full curve]	–
Nc1nc[nH]c(=O)c1N=Cc1ccccc1	-49.5	29.1 µM [falling, single point]	29.1 µM [falling, single point]
CC/C(=N\NC(=O)c1ccoc1C)c1ccc(C)o1	8.28	2.06 µM [rising, partial curve, poor fit]	2.31 µM [rising, partial curve]
COc1ccc(C(=O)N2CCCC2)cc1S(=O)(=O)N1CCC(C)CC1	–	0.82 µM [falling, full curve, poor fit]	–
O=C(c1cc(F)c(F)cc1Cl)N1CCN(CCc2ccccc2)CC1	11.7	6.51 µM [rising, single point]	–
COc1ccccc1N1CCN(C(=O)C(C)N(c2ccc(C)cc2)S(C)(=O)=O)CC1 (stereo not given)	11.4	9.2 µM [falling, partial curve, poor fit]	–

Look-ups from above:
Entry for O=C(COC(=O)CNC(=O)C1CCCCC1)Nc1ccccc1Cl under AC50 [1]: 0.13 µM [falling, single point]
Entry for CC(=O)N1CCN(C(=O)COc2ccc(Br)cc2)CC1 under cell number change [%]: -162
Entry for C=C1C[C@H](O)[C@@H]2[C@H](OC(=O)[C@H]2C)[C@H]2[C@H](C)[C@@H](O)C[C@@H]12 under AC50 [1]: 1.46 µM [falling, full curve]

(list continues)

Structure (SMILES)	cell number change [%]	AC50 [1]	AC50 [2]
N/C(=N\OC(=O)CCCOc1ccccc1)c1ccc(Br)cc1	42.7	–	14.6 µM [rising, single point]
O=C1CC(NS(=O)(=O)c2cccnc2)CN1c1ccc(Cl)cc1 (stereo not given)	35.9	1.84 µM [rising, full curve]	1.3 µM [rising, full curve]
Cc1ccc(C(=O)N2CCCN(c3nc4cc5c(cc4cc3C#N)OCO5)CC2)cc1	17.8	0.58 µM [rising, single point]	–
COc1cccc(CNC(=O)CN2C(=O)CCSc3ccc(S(=O)(=O)N4CCCC4)cc32)c1	-3.23	25.9 µM [rising, single point]	–
CCOc1ccc(OCC)c(NC(=O)CN(c2ccc(OC)cc2)S(=O)(=O)c2c(C)noc2C)c1	-13.9	23.1 µM [rising, single point]	–
COc1cc(OC)c(C2CC(=O)N3CN(C)CSC3=C2C#N)cc1OC (stereo not given)	22.8	2.06 µM [rising, partial curve]	–
Cc1ccc(/C=C/C(=O)O)cc1S(=O)(=O)N1CCc2ccccc21	-18.4	–	0.00651 µM [falling, full curve, poor fit]
Cn1cc(S(=O)(=O)N2CCOCC2)cc1C(=O)NCc1ccccc1Cl	19	–	–
COC1=C(N)C(=O)c2nc(-c3nc(C(=O)O)c(C)c(-c4ccc(OC)c(OC)c4O)c3N)ccc2C1=O	-59.8	2.06 µM [falling, full curve, poor fit]	29.1 µM [falling, single point]
S=C1NC2(CCCCC2)N=C1c1ccccc1	-3.98	0.164 µM [rising, partial curve, poor fit]	–
COc1ccc(CNCc2cccc(Oc3ccccc3)c2)cc1	-72.2	18.4 µM [falling, single point]	18.4 µM [falling, single point]
O=C(Nc1cccc(Cl)c1)N1CCCC1	10.1	–	–
COc1cccc(CC(Cc2nc3ccccc3[nH]2)c2nc3ccccc3[nH]2)c1 (stereo not given)	-24.6	–	–
C=CCN1C(=O)/C(=C/C(=O)OC)S/C1=N\NC(=O)c1ccccc1	-37.9	29.1 µM [falling, single point]	29.1 µM [falling, single point]
COc1ccc(NC(=O)CSc2nc(C(C)C)nc3c2c(=O)n(C)c(=O)n3C)c(OC)c1	-0.348	2.06 µM [falling, partial curve, poor fit]	–
CSc1ccc(-c2cc(=O)c3ccccc3o2)cc1	–	23.1 µM [rising, single point]	–
Cc1cc(CN2CCN(CC(=O)Nc3cc(C(F)(F)F)ccc3-n3cncn3)CC2)no1	-0.275	0.092 µM [falling, full curve, poor fit]	–
Cc1ccc(N2CCN(S(=O)(=O)c3ccc(-n4cnnn4)cc3)CC2)c(C)c1	–	0.366 µM [rising, full curve, poor fit]	–
C[C@@H](NC(=O)c1nc[nH]c1C(=O)NCc1ccccc1)c1ccccc1	4.36	4.61 µM [falling, partial curve, poor fit]	0.116 µM [falling, full curve, poor fit]
